Data reported in the supplement of paper PMC3353916.

Test system: Sindbis virus TE/5'2J-GFP
Assay: percent infected (GFP+ in RFP+ ISG-expressing cells); higher = more infection (less antiviral activity)
Settings: experiment: primary screen (single well)

Sequence	percent infected (BHK/HA-Zeo (control)) [%]	percent infected (BHK/NZAP-Zeo (ZAP)) [%]
MLTELEKALNSIIDVYHKYSLIKGNFHAVYRDDLKKLLETECPQYIRKKGADVWFKELDINTDGAVNFQEFLILVIKMGVAAHKKSHEESHKE [S100A8]	94.8	70.1
MMAKKPPKPAPRRIFQERLKITALPLYFEGFLLIKRSGYREYEHYWTELRGTTLFFYTDKKSIIYVDKLDIVDLTCLTEQNSTEKNCAKFTLVLPKEEVQLKTENTESGEEWRGFILTVTELSVPQNVSLLPGQVIKLHEVLEREKKRRIETEQSTSVEKEKEPTEDYVDVLNPMPACFYTVSRKEATEMLQKNPSLGNMILRPGSDSRNYSITIRQEIDIPRIKHYKVMSVGQNYTIELEKPVTLPNLFSVIDYFVKETRGNLRPFICSTDENTGQEPSMEGRSEKLKKNPHIA [STAP1]	98.2	93.6
MMAQSKANGSHYALTAIGLGMLVLGVIMAMWNLVPGFSAAEKPTAQGSNKTEVGGGILKSKTFSVAYVLVGAGVMLLLLSICLSIRDKRKQRQGEDLAHVQHPTGAGPHAQEEDSQEEEEEDEEAASRYYVPSYEEVMNTNYSEARGEEQNPRLSISLPSYESLTGLDETTPTSTRADVEASPGNPPDRQNSKLAKRLKPLKVRRIKSEKLHLKDFRINLPDKNVPPPSIEPLTPPPQYDEVQEKAPDTRPPD [TMEM51]	92.4	84.4
MMFRDQVGVLAGWFKGWNECEQTVALLSLLKRVSQTQARFLQLCLEHSLADCAELHVLEREANSPGIINQWQQESKDKVISLLLTHLPLLKPGNLDAKVEYMKLLPKILAHSIEHNQHIEESRQLLSYALIHPATSLEDRSALAMWLNHLEDRTSTSFGGQNRGRSDSVDYGQTHYYHQRQNSDDKLNGWQNSRDSGICINASNWQDKSMGCENGHVPLYSSSSVPTTINTIGTSTSTILSGQAHHSPLKRSVSLTPPMNVPNQPLGHGWMSHEDLRARGPQCLPSDHAPLSPQSSVASSGSGGSEHLEDQTTARNTFQEEGSGMKDVPAWLKSLRLHKYAALFSQMTYEEMMALTECQLEAQNVTKGARHKIVISIQKLKERQNLLKSLERDIIEGGSLRIPLQELHQMILTPIKAYSSPSTTPEARRREPQAPRQPSLMGPESQSPDCKDGAAATGATATPSAGASGGLQPHQLSSCDGELAVAPLPEGDLPGQFTRVMGKVCTQLLVSRPDEENISSYLQLIDKCLIHEAFTETQKKRLLSWKQQVQKLFRSFPRKTLLDISGYRQQRNRGFGQSNSLPTAGSVGGGMGRRNPRQYQIPSRNVPSARLGLLGTSGFVSSNQRNTTATPTIMKQGRQNLWFANPGGSNSMPSRTHSSVQRTRSLPVHTSPQNMLMFQQPEFQLPVTEPDINNRLESLCLSMTEHALGDGVDRTSTI [SAMD4A]	97.5	61.7
MMLQHPGQVSASEVSASAIVPCLSPPGSLVFEDFANLTPFVKEELRFAIQNKHLCHRMSSALESVTVSDRPLGVSITKAEVAPEEDERKKRRRERNKIAAAKCRNKKKEKTECLQKESEKLESVNAELKAQIEELKNEKQHLIYMLNLHRPTCIVRAQNGRTPEDERNLFIQQIKEGTLQS [ATF3]	96.7	93.3
MMTKHKKCFIIVGVLITTNIITLIVKLTRDSQSLCPYDWIGFQNKCYYFSKEEGDWNSSKYNCSTQHADLTIIDNIEEMNFLRRYKCSSDHWIGLKMAKNRTGQWVDGATFTKSFGMRGSEGCAYLSDDGAATARCYTERKWICRKRIH [CLEC2B]	96.1	94.9
MNAAASSYPMASLYVGDLHSDVTEAMLYEKFSPAGPVLSIRVCRDMITRRSLGYAYVNFQQPADAERALDTMNFDVIKGKPIRIMWSQRDPSLRKSGVGNVFIKNLDKSIDNKALYDTFSAFGNILSCKVVCDENGSKGYAFVHFETQEAADKAIEKMNGMLLNDRKVFVGRFKSRKEREAELGAKAKEFTNVYIKNFGEEVDDESLKELFSQFGKTLSVKVMRDPNGKSKGFGFVSYEKHEDANKAVEEMNGKEISGKIIFVGRAQKKVERQAELKRKFEQLKQERISRYQGVNLYIKNLDDTIDDEKLRKEFSPFGSITSAKVMLEDGRSKGFGFVCFSSPEEATKAVTEMNGRIVGSKPLYVALAQRKEERKAHLTNQYMQRVAGMRALPANAILNQFQPAAGGYFVPAVPQAQGRPPYYTPNQLAQMRPNPRWQQGGRPQGFQGMPSAIRQSGPRPTLRHLAPTGSECPDRLAMDFGGAGAAQQGLTDSCQSGGVPTAVQNLAPRAAVAAAAPRAVAPYKYASSVRSPHPAIQPLQAPQPAVHVQGQEPLTASMLAAAPPQEQKQMLGERLFPLIQTMHSNLAGKITGMLLEIDNSELLHMLESPESLRSKVDEAVAVLQAHHAKKEAAQKVGAVAAATS [PABPC4]	95.9	–
MNAEPERKFGVVVVGVGRAGSVRMRDLRNPHPSSAFLNLIGFVSRRELGSIDGVQQISLEDALSSQEVEVAYICSESSSHEDYIRQFLNAGKHVLVEYPMTLSLAAAQELWELAEQKGKVLHEEHVELLMEEFAFLKKEVVGKDLLKGSLLFTAGPLEEERFGFPAFSGISRLTWLVSLFGELSLVSATLEERKEDQYMKMTVCLETEKKSPLSWIEEKGPGLKRNRYLSFHFKSGSLENVPNVGVNKNIFLKDQNIFVQKLLGQFSEKELAAEKKRILHCLGLAEEIQKYCCSRK [BLVRA]	98.3	95.8
MNHIVQTFSPVNSGQPPNYEMLKEEQEVAMLGVPHNPAPPMSTVIHIRSETSVPDHVVWSLFNTLFMNTCCLGFIAFAYSVKSRDRKMVGDVTGAQAYASTAKCLNIWALILGIFMTILLIIIPVLVVQAQR [IFITM2]	95.6	90.9
MNMANFLRGFEEKGIKNDRPEDQLSKEKKKILFSFCEVCNIQLNSAAQAQVHSNGKSHRKRVKQLSDGQPPPPAQASPSSNSSTGSTCHTTTLPALVRTPTLMMQPSLDIKPFMSFPVDSSSAVGLFPNFNTMDPVQKAVINHTFGVSIPPKKKQVISCNVCQLRFNSDSQAEAHYKGSKHAKKVKALDATKNKPKMVPSKDSAKANPSCSITPITGNNSDKSEDKGKLKASSSSQPSSSESGSFLLKSGTTPLPPGAATSPSKSTNGAPGTVVESEEEKAKKLLYCSLCKVAVNSLSQLEAHNTGSKHKTMVEARNGAGPIKSYPRPGSRLKMQNGSKGSGLQNKTFHCEICDVHVNSEIQLKQHISSRRHKDRVAGKPLKPKYSPYNKLQRSPSILAAKLAFQKDMMKPLAPAFLSSPLAAAAAVSSALSLPPRPSASLFQAPAIPPALLRPGHGPIRATPASILFAPY [ZNF385B]	98.2	94.2
MNMTQARVLVAAVVGLVAVLLYASIHKIEEGHLAVYYRGGALLTSPSGPGYHIMLPFITTFRSVQTTLQTDEVKNVPCGTSGGVMIYIDRIEVVNMLAPYAVFDIVRNYTADYDKTLIFNKIHHELNQFCSAHTLQEVYIELFDQIDENLKQALQKDLNLMAPGLTIQAVRVTKPKIPEAIRRNFELMEAEKTKLLIAAQKQKVVEKEAETERKKAVIEAEKIAQVAKIRFQQKVMEKETEKRISEIEDAAFLAREKAKADAEYYAAHKYATSNKHKLTPEYLELKKYQAIASNSKIYFGSNIPNMFVDSSCALKYSDIRTGRESSLPSKEALEPSGENVIQNKESTG [ERLIN1]	97.6	85.5
MNPAAEAEFNILLATDSYKVTHYKQYPPNTSKVYSYFECREKKTENSKLRKVKYEETVFYGLQYILNKYLKGKVVTKEKIQEAKDVYKEHFQDDVFNEKGWNYILEKYDGHLPIEIKAVPEGFVIPRGNVLFTVENTDPECYWLTNWIETILVQSWYPITVATNSREQKKILAKYLLETSGNLDGLEYKLHDFGYRGVSSQETAGIGASAHLVNFKGTDTVAGLALIKKYYGTKDPVPGYSVPAAEHSTITAWGKDHEKDAFEHIVTQFSSVPVSVVSDSYDIYNACEKIWGEDLRHLIVSRSTQAPLIIRPDSGNPLDTVLKVLEILGKKFPVTENSKGYKLLPPYLRVIQGDGVDINTLQEIVEGMKQKMWSIENIAFGSGGGLLQKLTRDLLNCSFKCSYVVTNGLGINVFKDPVADPNKRSKKGRLSLHRTPAGNFVTLEEGKGDLEEYGQDLLHTVFKNGKVTKSYSFDEIRKNAQLNIELEAAHH [PBEF1]	93.9	–
MNPESSIFIEDYLKYFQDQVSRENLLQLLTDDEAWNGFVAAAELPRDEADELRKALNKLASHMVMKDKNRHDKDQQHRQWFLKEFPRLKRELEDHIRKLRALAEEVEQVHRGTTIANVVSNSVGTTSGILTLLGLGLAPFTEGISFVLLDTGMGLGAAAAVAGITCSVVELVNKLRARAQARNLDQSGTNVAKVMKEFVGGNTPNVLTLVDNWYQVTQGIGRNIRAIRRARANPQLGAYAPPPHVIGRISAEGGEQVERVVEGPAQAMSRGTMIVGAATGGILLLLDVVSLAYESKHLLEGAKSESAEELKKRAQELEGKLNFLTKIHEMLQPGQDQ [APOL2]	98.5	95.9
MNSSKSSETQCTERGCFSSQMFLWTVAGIPILFLSACFITRCVVTFRIFQTCDEKKFQLPENFTELSCYNYGSGSVKNCCPLNWEYFQSSCYFFSTDTISWALSLKNCSAMGAHLVVINSQEEQEFLSYKKPKMREFFIGLSDQVVEGQWQWVDGTPLTKSLSFWDVGEPNNIATLEDCATMRDSSNPRQNWNDVTCFLNYFRICEMVGINPLNKGKSL [CLEC4E]	–	96.4
MNTDLAAGKMASAACSMDPIDSFELLDLLFDRQDGILRHVELGEGWGHVKDQQVLPNPDSDDFLSSILGSGDSLPSSPLWSPEGSDSGISEDLPSDPQDTPPRSGPATSPAGCHPAQPGKGPCLSYHPGNSCSTTTPGPVIQVPEASVTIDLEMWSPGGRICAEKPADPVDLSPRCNLTVKDLLLSGSSGDLQQHHLGASYLLRPGAGHCQELVLTEDEKKLLAKEGITLPTQLPLTKYEERVLKKIRRKIRNKQSAQESRKKKKEYIDGLETRMSACTAQNQELQRKVLHLEKQNLSLLEQLKKLQAIVVQSTSKSAQTGTCVAVLLLSFALIILPSISPFGPNKTESPGDFAPVRVFSRTLHNDAASRVAADAVPGSEAPGPRPEADTTREESPGSPGADWGFQDTANLTNSTEELDNATLVLRNATEGLGQVALLDWVAPGPSTGSGRAGLEAAGDEL [CREB3L3]	–	96.4
MNTIVFNKLSGAVLFEDGGASERERGGRPYSGVLDSPHARPEVGIPDGPPLKDNLGLRHRRTGARQNGGKVRHKRQALQDMARPLKQWLYKHRDNPYPTKTEKILLALGSQMTLVQVSNWFANARRRLKNTVRQPDLSWALRIKLYNKYVQGNAERLSVSSDDSCSEDGENPPRTHMNEGGYNTPVHHPVIKSENSVIKAGVRPESRASEDYVAPPKYKSSLLNRYLNDSLRHVMATNTTMMGKTRQRNHSGSFSSNEFEEELVSPSSSETEGNFVYRTDTLENGSNKGESAANRKGPSKDDTYWKEINAAMALTNLAQGKDKLQGTTSCIIQKSSHIAEVKTVKVPLVQQF [MKX]	69.4	55.2
MNTRNRVVNSGLGASPASRPTRDPQDPSGRQGELSPVEDQREGLEAAPKGPSRESVVHAGQRRTSAYTLIAPNINRRNEIQRIAEQELANLEKWKEQNRAKPVHLVPRRLGGSQSETEVRQKQQLQLMQSKYKQKLKREESVRIKKEAEEAELQKMKAIQREKSNKLEEKKRLQENLRREAFREHQQYKTAEFLSKLNTESPDRSACQSAVCGPQSSTWKLPILPRDHSWARSWAYRDSLKAEENRKLQKMKDEQHQKSELLELKRQQQEQERAKIHQTEHRRVNNAFLDRLQGKSQPGGLEQSGGCWNMNSGNSWGI [EPSTI1]	95.2	79.2

This is a noisy data set.
